Source: PubChem BioAssay AID504808 (Drosophila RNAi Screening Center, 2011)

Test: 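Fly genes required to hold E2F transcription in check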 (primary screen)
System: Drosophila S2 cells
Knock-down reagent: long dsRNA against Drosophila genes
Measured: 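Firefly luciferase driven by E2F sites, normalised to Renilla luciferase on the same minimal promoter, measured by plate reader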
Direction: E2F firefly: higher = more E2F reporter activity; Renilla normaliser: higher = more normaliser reporter signal
Call rule: 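a knock-down counted as active when the firefly/Renilla E2F signal rose above 50%, a threshold chosen arbitrarily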
The deposit covers about 21,000 reagents; shown is a random part of those with a known target gene and a result. In the full data, 18 (0.084%) got an active call. 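Raw counts without plate normalisation, one of two replicates; the ratio scores behind the calls were not deposited.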 Not given: the amount of reagent, the time to read-out.

The first 2 records, ahead of the listing:
Dsp1 [DRSC20315] — E2F firefly, rep 1: 64444; Renilla normaliser, rep 1: 4338; call: inactive
gprs [DRSC06761] — E2F firefly, rep 1: 1.38e5; Renilla normaliser, rep 1: 4713; call: inactive

The list itself, from the start:
Dsp1 [DRSC20315] — E2F firefly, rep 1: 64444; Renilla normaliser, rep 1: 4338; call: inactive
gprs [DRSC06761] — E2F firefly, rep 1: 1.38e5; Renilla normaliser, rep 1: 4713; call: inactive
ERR [DRSC10840] — E2F firefly, rep 1: 82643; Renilla normaliser, rep 1: 4137; call: inactive
CG34150 [DRSC13689] — E2F firefly, rep 1: 80375; Renilla normaliser, rep 1: 2372; call: inactive
CG4101 [DRSC10400] — E2F firefly, rep 1: 1.66e5; Renilla normaliser, rep 1: 8126; call: inactive
CG7800 [DRSC16315] — E2F firefly, rep 1: 1.29e5; Renilla normaliser, rep 1: 5977; call: inactive
BBS1 [DRSC10196] — E2F firefly, rep 1: 52547; Renilla normaliser, rep 1: 2955; call: inactive
Rcd5 [DRSC08180] — E2F firefly, rep 1: 89858; Renilla normaliser, rep 1: 3835; call: inactive
Cyp4d2 [DRSC18458] — E2F firefly, rep 1: 1787; Renilla normaliser, rep 1: 884; call: inactive
CG17778 [DRSC18504] — E2F firefly, rep 1: 57556; Renilla normaliser, rep 1: 5659; call: inactive
CG14710 [DRSC14933] — E2F firefly, rep 1: 70417; Renilla normaliser, rep 1: 3718; call: inactive
CG13160 [DRSC06284] — E2F firefly, rep 1: 1.01e5; Renilla normaliser, rep 1: 4173; call: inactive
